This passage reports binding results from patent publication CN115746137A.

Amino acid sequences for entries named in this document (tags omitted). Residues count along the entry.
UniProt P01732, residues 22-235: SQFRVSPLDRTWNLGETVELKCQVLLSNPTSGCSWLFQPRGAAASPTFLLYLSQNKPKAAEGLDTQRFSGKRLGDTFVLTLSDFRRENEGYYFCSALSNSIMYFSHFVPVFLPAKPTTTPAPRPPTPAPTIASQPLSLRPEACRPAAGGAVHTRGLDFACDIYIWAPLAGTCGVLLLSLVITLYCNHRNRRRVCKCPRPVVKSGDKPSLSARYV

This test has as its target CD8抗原 (on the cell surface; CD8 T cells of human PBMC) (human) (UniProt P01732). The test is described as follows: staining of cell-surface CD8 (Fig. 2A); method not described further.

Results are given in words; binding and its absence hold for the method and conditions named. Some results given as binding are weak or reduced against the parent protein; the word gives no strength.

B1: CD8-7抗体 (antibody, V domains shown)
VH: EVQLQQSGAEVKKPGASVKVSCKASGFNIKDTYIHWVRQAPGKGLEWMGRIDPANDNTLYARKFQGRVTITADTSTNTAYMELSSLRSEDTAVYYCTRGYGYYVFDTWGQGTTVTVSS
VL: DIKMTQSPSSLSASVGDRVTITCRTSRSISQYLAWYQEKPGKTNKLLIYSGSTLQSGIPSRFSGSGSGTDFTLTISSLQPEDFATYYCQQVNEFPVTFGAGTKLEIK
As to B1, the binding result was “binds”.
